From PubChem BioAssay AID276 (DTP/NCI, 2004)
The list does not hold the whole screen: it gathers tests that were run many times, whatever their T/C, doses with no T/C, and many T/C values between a quarter and a half above the control. Other doses and runs of a compound stand elsewhere. T/C gives the treated animals as a percentage of the vehicle group. Some entries give survivors of the animals treated and no T/C: the source holds a T/C of zero for them, seemingly a mark for toxic or unscored doses. Some doses without a T/C left all or most animals alive at the check, yet need not have been tolerated: the source hardly ever lists a survival T/C far under the control, and the zero likely stands for such cases as well. Counts of survivors are from the toxicity check (mostly the fifth day) where no day follows; animals may have died later. Schedule codes are those of the source, read here as Q, the interval in days (D) or hours (H), X, the number of doses. Some entries hold several experiments; the values are given in rising order. Where survival is the endpoint, the PubChem record calls one and a half times the control and up active, and a quarter to a half above the control has no call in these data; cut-offs in other NCI protocols can differ. Some T/C values are followed by the survivors on the day toxicity was checked, most often the fifth; where none is given, no animal had died by that day. Additions like (4×) stand for listed records that agree.

Test system: B6C3F1 mice, Lewis lung carcinoma iv, survival T/C
Experiment: NCI In Vivo Anticancer Drug Screen. Data for tumor model Lewis Lung Carcinoma (intravenous) in B6C3F1 mice
Conditions: T/C endpoint: median survival time, schedule: Q01DX009 (ip), higher T/C = longer survival
Summary of the method: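 Read-out is survival, expressed as the treated-group measurement over the vehicle control-group measurement. Animals bore a transplantable tumor and were given compound.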

[1] = dose: 25.0 mg/kg/injection, vehicle: saline
[2] = dose: 50.0 mg/kg/injection, vehicle: saline
[3] = dose: 100.0 mg/kg/injection, vehicle: saline
[4] = dose: 200.0 mg/kg/injection, vehicle: saline
[5] = dose: 400.0 mg/kg/injection, vehicle: saline
[6] = dose: 25.0 mg/kg/injection, vehicle: saline with Tween-80
[7] = dose: 50.0 mg/kg/injection, vehicle: saline with Tween-80
[8] = dose: 100.0 mg/kg/injection, vehicle: saline with Tween-80
[9] = dose: 200.0 mg/kg/injection, vehicle: saline with Tween-80
[10] = dose: 12.5 mg/kg/injection, vehicle: suspension in saline
[11] = dose: 6.25 mg/kg/injection, vehicle: saline with Tween-80
[12] = dose: 12.5 mg/kg/injection, vehicle: saline with Tween-80
[13] = dose: 400.0 mg/kg/injection, vehicle: suspension in saline
[14] = dose: 100.0 mg/kg/injection, vehicle: Klucel (hydroxypropylcellulose) (HPC)
[15] = dose: 25.0 mg/kg/injection, vehicle: Klucel (hydroxypropylcellulose) (HPC)
[16] = dose: 50.0 mg/kg/injection, vehicle: Klucel (hydroxypropylcellulose) (HPC)
[17] = dose: 200.0 mg/kg/injection, vehicle: Klucel (hydroxypropylcellulose) (HPC)
[18] = dose: 400.0 mg/kg/injection, vehicle: Klucel (hydroxypropylcellulose) (HPC)
[19] = dose: 400.0 mg/kg/injection, vehicle: saline with Tween-80

## Nc1ncn(C2OC(CO)C(O)C2O)c(=O)n1 (configuration not stated)
[1]
  T/C: 131 % of control
[2]
  T/C: 135 % of control
[3]
  T/C: 129 and 133 % of control
dose: 196.0 mg/kg/injection, vehicle: saline
  survivor count: 10 of 10
[4]
  T/C: 142 % of control
dose: 280.0 mg/kg/injection, vehicle: saline
  survivor count: 9 of 9
[5]
  survivor count: 10 of 10
dose: 571.0 mg/kg/injection, vehicle: saline
  survivor count: 9 of 10

## C[CH2][Sn]([CH2]C)([CH2]C(=O)OC)[CH2]C(=O)OC
[6]
  survivor count: 0 of 10
[7]
  survivor count: 0 of 10
[8]
  survivor count: 0 of 10
[9]
  survivor count: 0 of 10

## Cn1cnc([N+](=O)[O-])c1Sc1nc(N)nc2c1ncn2C1OC(CO)C(O)C1O (configuration not stated)
[10]
  survivor count: 10 of 10

## Cc1cc2c(C(C)C)c(O)c(O)c(C=O)c2c(O)c1-c1c(C)cc2c(C(C)C)c(O)c(O)c(C=O)c2c1O
dose: 6.0 mg/kg/injection, vehicle: saline with Tween-80
  survivor count: 10 of 10
[11]
  survivor count: 10 of 10
[12]
  survivor count: 6 of 10
[6]
  survivor count: 1 of 10
[7]
  survivor count: 0 of 10
[8]
  survivor count: 0 of 10

## O=C(O)CP(=O)(O)O
dose: 1600.0 mg/kg/injection, vehicle: saline
  survivor count: 5 of 10
dose: 3200.0 mg/kg/injection, vehicle: saline
  survivor count: 0 of 10

## CSC(SC)=C1C(=O)NC(=O)NC1=O
[2]
  survivor count: 8 of 10

## O=C1NC(O)c2ccccc2O1 (configuration not stated)
[10]
  survivor count: 8 of 10
[13]
  survivor count: 4 of 10

## NC(CSC(c1ccccc1)(c1ccccc1)c1ccccc1)C(=O)O (configuration not stated)
[14]
  survivor count: 5 of 10

## Cc1cc(NS(=O)(=O)c2ccc(N=Nc3cc(N=Nc4ccc(S(=O)(=O)Nc5cc(C)nc(C)n5)cc4)c4c(NC(=O)C(Cl)Cl)cccc4c3OC(=O)C(Cl)Cl)cc2)nc(C)n1 (tested in a mixture with another compound)
[13]
  survivor count: 8 of 10

## CC[As](=O)(O)CC
[5]
  survivor count: 1 of 10

## COc1ccc2[nH]c3ccc4cc[n+](CCN5CCC(C6CCN(CC[n+]7ccc8ccc9[nH]c%10ccc(OC)cc%10c9c8c7)CC6)CC5)cc4c3c2c1
[15]
  T/C: 125 % of control
[16]
  T/C: 125 and 146 % of control [9 of 10 alive]
[14]
  survivor count: 0 of 10
[17]
  survivor count: 0 of 10

## NC1=NC(=O)N2CC12 (configuration not stated)
[2]
  T/C: 125 % of control
[5]
  survivor count: 2 of 10

## NC(CNC(=O)CBr)C(=O)O (configuration not stated)
dose: 100.0 mg/kg/injection, vehicle: water
  survivor count: 3 of 10

## O=C1CN(Cc2ccc3c(c2)OCO3)NO1
[9]
  survivor count: 10 of 10

## O=c1oc2c(O)c(O)cc3c(=O)oc4c(O)c(O)cc1c4c23
[17]
  T/C: 128 % of control
[18]
  survivor count: 10 of 10

## Nc1ccc2c(c1)CN1C(=O)c3ccccc3C1=N2
[12]
  T/C: 130 % of control [9 of 10 alive]
[8]
  survivor count: 5 of 10
[9]
  survivor count: 1 of 10

## Cc1c2cc[n+](CCN3CCCCC3)cc2c(C)c2c1[nH]c1ccc(O)cc12
[2]
  survivor count: 9 of 10

## CN(Cc1cnc2nc(N)nc(N)c2n1)c1ccc(C(=O)N[C@@H](CCC(=O)O)C(=O)O)cc1
dose: 1.0 mg/kg/injection, vehicle: sodium bicarbonate
  survivor count: 10 of 10
dose: 8.0 mg/kg/injection, vehicle: sodium bicarbonate
  survivor count: 9 of 10 and 10 of 10
dose: 16.0 mg/kg/injection, vehicle: sodium bicarbonate
  survivor count: 9 of 10 and 10 of 10

## O=C(Nc1ccccc1C(=O)O)c1cc([N+](=O)[O-])cc([N+](=O)[O-])c1
[19]
  survivor count: 8 of 10

## CC1c2ccccc2CC(CCN(C)C)c2ccccc21 (configuration not stated)
[8]
  survivor count: 0 of 10

## C1CN1c1nc(N2CC2)nc(N2CC2)n1
dose: 2.0 mg/kg/injection, vehicle: suspension in saline
  survivor count: 10 of 10

## C#C[C@]1(O)CC[C@H]2[C@@H]3CCc4cc(O)ccc4[C@H]3CC[C@@]21C
[14]
  T/C: 129 % of control
[17]
  T/C: 129 % of control
[18]
  T/C: 139 % of control
  survivor count: 5 of 10
dose: 800.0 mg/kg/injection, vehicle: Klucel (hydroxypropylcellulose) (HPC)
  survivor count: 0 of 10

## COC1=C2C[C@@H](C)C[C@@H](OC)[C@@H](O)[C@H](C)/C=C(\C)[C@@H](OC(N)=O)[C@H](OC)/C=C\C=C(/C)C(=O)NC(=CC1=O)C2=O
dose: 4.0 mg/kg/injection, vehicle: saline with Tween-80
  survivor count: 6 of 10

## NC(=O)/C=C/c1c[nH]c2nccnc12
dose: 50.0 mg/kg/injection, vehicle: water
  survivor count: 1 of 10

## C=Cc1cnc([N+](=O)[O-])n1C
[18]
  survivor count: 1 of 10

## O=c1nc(-c2ccco2)sc(=O)[nH]1
[18]
  survivor count: 0 of 10

## CN(C)/N=N/c1nc[nH]c1C(N)=O
[15]
  survivor count: 9 of 10
[16]
  survivor count: 10 of 10
[14]
  survivor count: 7 of 10

## C[CH2][Sn]1([CH2]C)[O]OC(c2ccccc2)[O]1 (configuration not stated)
[11]
  survivor count: 10 of 10
[6]
  survivor count: 7 of 10

## Nc1cc2c3c(cccc3c1)C(=O)N(CCN1CCCC1)C2=O
[7]
  T/C: 138 % of control
[8]
  survivor count: 10 of 10

## Nc1nc(-c2ccccc2)c(Br)c(=O)[nH]1
dose: 1600.0 mg/kg/injection, vehicle: saline with Tween-80
  survivor count: 0 of 10

## CN(C)C(=O)SC1=C(c2c(Cl)cccc2Cl)C(=O)c2ccccc21
[18]
  survivor count: 8 of 10

## Oc1c(Cl)cc(C(c2cc(Cl)c(O)c(Cl)c2)C(c2cc(Cl)c(O)c(Cl)c2)c2cc(Cl)c(O)c(Cl)c2)cc1Cl
[18]
  survivor count: 5 of 10

## CCC1OC(OC)C=CC1=O (configuration not stated)
[1]
  T/C: 126 % of control
[3]
  survivor count: 5 of 10
[4]
  survivor count: 0 of 10

## NC(=O)c1csc(C2OC(CO)C(O)C2O)n1 (configuration not stated)
[1]
  T/C: 174, 284, 291, 324 % of control (2×)
[2]
  T/C: 233, 291, 324, 324 % of control [9 of 10 alive]
[3]
  T/C: 291 (2×) and 324 % of control (2×)
[4]
  T/C: 291 (2×) and 324 % of control (2×)
[5]
  T/C: 291 (2×) and 324 % of control (2×)
dose: 800.0 mg/kg/injection, vehicle: saline
  T/C: 97 [8 of 10 alive], 115, 291 % of control (2×)
dose: 800.0 mg/kg/injection, vehicle: water
  survivor count: 10 of 10

## O=C1C(O)=C(c2ccccc2)C(=O)C(O)=C1c1ccccc1
[8]
  survivor count: 4 of 10
[3]
  survivor count: 5 of 10

## CC12CC(C(=O)O)C3(O)CC(C)(C1)CC(C)(C2)C3 (configuration not stated) (tested in a mixture with another compound)
[16]
  T/C: 134 % of control

## C[PH+](C)C.C[PH+](C)C.[Au]
dose: 20.0 mg/kg/injection, vehicle: saline
  survivor count: 3 of 10

## CC1(C)CC2(C)OC2C2(C1)N=NC(=Nc1ccccc1)O2 (configuration not stated)
[9]
  survivor count: 0 of 10
[19]
  survivor count: 0 of 8

## OC(C1CO1)C(O)C1CO1 (configuration not stated)
dose: 4.0 mg/kg/injection, vehicle: saline
  T/C: 128 % of control
dose: 8.0 mg/kg/injection, vehicle: saline
  survivor count: 10 of 10

## CN(N=O)C(N)=O
dose: 6.0 mg/kg/injection, vehicle: saline
  T/C: 136 % of control
dose: 12.0 mg/kg/injection, vehicle: saline
  T/C: 141 % of control
[2]
  survivor count: 4 of 10
